# According to PubChem BioAssay AID588590 (National Center for Advancing Translational Sciences (NCATS), 2011):
# Sequences of proteins named here, by UniProt entry; tags and fusion partners are left off. A change or cut given only in a name is not applied to a line headed by its entry.
# UniProt Q9UNA4: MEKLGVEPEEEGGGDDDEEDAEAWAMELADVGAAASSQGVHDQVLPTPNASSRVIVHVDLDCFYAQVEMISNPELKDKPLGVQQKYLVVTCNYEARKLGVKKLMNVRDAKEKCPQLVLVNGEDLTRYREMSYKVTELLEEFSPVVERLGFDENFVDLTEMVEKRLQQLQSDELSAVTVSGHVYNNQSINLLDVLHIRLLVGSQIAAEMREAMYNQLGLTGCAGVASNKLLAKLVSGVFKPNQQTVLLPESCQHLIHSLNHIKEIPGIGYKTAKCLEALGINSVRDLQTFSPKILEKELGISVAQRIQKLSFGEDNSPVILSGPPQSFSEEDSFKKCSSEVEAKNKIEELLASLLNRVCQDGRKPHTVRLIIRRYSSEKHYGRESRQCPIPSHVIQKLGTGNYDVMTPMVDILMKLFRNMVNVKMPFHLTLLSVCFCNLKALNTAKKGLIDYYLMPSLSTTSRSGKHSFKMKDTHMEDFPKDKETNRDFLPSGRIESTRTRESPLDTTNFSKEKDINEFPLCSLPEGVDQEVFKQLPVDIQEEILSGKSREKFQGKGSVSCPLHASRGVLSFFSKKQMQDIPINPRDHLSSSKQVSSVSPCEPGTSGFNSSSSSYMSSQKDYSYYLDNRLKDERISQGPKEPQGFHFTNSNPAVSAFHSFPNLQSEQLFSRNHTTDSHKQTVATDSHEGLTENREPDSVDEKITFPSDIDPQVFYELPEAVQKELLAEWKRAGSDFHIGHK
# About 4,000 (1%) of roughly 390,000 compounds were called active. The shares of active, inactive and inconclusive entries below differ from those in the screen. The call rests on the fitted dose curve; in most records, active means well fitted inhibition curve with a large enough effect; inconclusive means small, poorly fitted or top-dose-only effect, or another doubt; inactive means no such curve, though single readings can be large or run the other way. A potency beside an inconclusive call is a rough fit, not a confirmed value.
# Target: DNA polymerase iota (Homo sapiens) (UniProt Q9UNA4)
# Experiment: qHTS for Inhibitors of Polymerase Iota
# Details: Pol iota fluorescent replication assay, 10 min; series mostly up to 115 µM; activity, negative = inhibition: at the top concentration
# Method in brief: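 Fluorescent replication assay read twice, at 0 min and 10 min after adding 50 nM (final) substrate. Enzyme (10 nM) and compounds were first incubated 15 min at room temperature; enzyme-free buffer wells were negative controls.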
# Potency means the concentration at half of the fitted maximal effect.
Compound,"activity, negative = inhibition",Potency
CCN1CCc2c(sc(NC(=S)NC(=O)c3cccc(F)c3)c2C(N)=O)C1,inactive: -0.439%,
COc1ccccc1NC(=O)c1cc2c(=O)n(C)c3ccccc3c2n1C,,"inconclusive: 11.2 µM [inhibitor, partial curve, poor fit]"
CCc1cc(=O)oc2c3c(cc(OCC(=O)NCCCC(=O)O)c12)OC(C)(C)CC3,,"inconclusive: 79.4 µM [inhibitor, single point]"
CCc1ccccc1N(C(=O)c1ccco1)C(C(=O)NC1CCCC1)c1cccnc1 (configuration not stated),,"inconclusive: 79.4 µM [inhibitor, partial curve, poor fit]"
CCCN(CCC)C1=N/C(=C\c2ccco2)C(=O)N1c1ccccc1,,"inconclusive: 8.91 µM [inhibitor, partial curve, poor fit]"
COc1cc2cc(C#N)c(SCC(=O)OC(C)C)nc2cc1OC,inactive: 16.9%,
CC1=NN(c2ccc(C(=O)O)cc2)C(=O)CC1,inactive: 41.4%,
O=C(NCc1ccc2c(c1)OCO2)c1ccc(CS(=O)Cc2ccc(Cl)cc2)o1 (configuration not stated),,"inconclusive: 31.6 µM [inhibitor, partial curve, poor fit]"
Nc1c(O)cccc1C(=O)O,,active: 39.8 µM
O=C(NO)C1CC2C=CC1C2 (configuration not stated),,"inconclusive: 89.1 µM [inhibitor, single point]"
CCOC(=O)N1CCN(CC(=O)Nc2ccc(OC)cc2)CC1,,"inconclusive: 35.5 µM [inhibitor, single point]"
CCc1ccc2[nH]cc(S(=O)(=O)c3ccc(C(C)C)cc3)c(=O)c2c1,inactive: 6.07%,
Nc1ccc(S(=O)(=O)c2cc(O)c3ccccc3c2O)cc1,,"inconclusive: 28.2 µM [inhibitor, partial curve]"
Cc1cc(C)cc(OCCSc2nc3ccc(NC(=O)c4ccc5c(c4)OCO5)cc3s2)c1,,"inconclusive: 89.1 µM [inhibitor, single point]"
CCC1Nc2ncnc(N3CCN(c4ccccc4)CC3)c2N(Cc2ccc(C)cc2)C1=O (configuration not stated),,"inconclusive: 28.2 µM [inhibitor, single point]"
C/C(=N\NC(=O)c1ccc(-c2ccccc2)cc1)C1C(=O)c2ccccc2C1=O,,"inconclusive: 31.6 µM [inhibitor, single point]"
CCOC(=O)c1c(NC(=O)c2cc(-c3ccccc3OC)on2)sc(C)c1C,inactive: 8.24%,
C/C(=N\Nc1ccc(S(N)(=O)=O)cc1[N+](=O)[O-])c1cccs1,,active: 25.1 µM
O=C1C=C(c2ccc(O)cc2)C[C@@H](c2ccc3c(c2)OCO3)C1,,"inconclusive: 22.4 µM [inhibitor, full curve]"
O=S(=O)(c1ccc2ccccc2c1)N1CCCCCC1,inactive: 90.3%,
O=[N+]([O-])c1ccccc1/C=N\N1CCN(c2ccccc2)CC1,,"inconclusive: 10 µM [inhibitor, single point]"
Nc1nnc(SCC(=O)Nc2sc3c(c2C(=O)c2ccccc2)CCCC3)s1,,"inconclusive: 28.2 µM [inhibitor, partial curve, poor fit]"
CCc1nnc2n1N=C(c1cccc([N+](=O)[O-])c1)CS2,,"inconclusive: 25.1 µM [inhibitor, partial curve, poor fit]"

# By substructure: the compounds so far containing a carbonyl joined to an NH by a bond outside any ring
Compound,"activity, negative = inhibition",Potency
CCN1CCc2c(sc(NC(=S)NC(=O)c3cccc(F)c3)c2C(N)=O)C1,inactive: -0.439%,
COc1ccccc1NC(=O)c1cc2c(=O)n(C)c3ccccc3c2n1C,,"inconclusive: 11.2 µM [inhibitor, partial curve, poor fit]"
CCc1cc(=O)oc2c3c(cc(OCC(=O)NCCCC(=O)O)c12)OC(C)(C)CC3,,"inconclusive: 79.4 µM [inhibitor, single point]"
CCc1ccccc1N(C(=O)c1ccco1)C(C(=O)NC1CCCC1)c1cccnc1 (configuration not stated),,"inconclusive: 79.4 µM [inhibitor, partial curve, poor fit]"
O=C(NCc1ccc2c(c1)OCO2)c1ccc(CS(=O)Cc2ccc(Cl)cc2)o1 (configuration not stated),,"inconclusive: 31.6 µM [inhibitor, partial curve, poor fit]"
O=C(NO)C1CC2C=CC1C2 (configuration not stated),,"inconclusive: 89.1 µM [inhibitor, single point]"
CCOC(=O)N1CCN(CC(=O)Nc2ccc(OC)cc2)CC1,,"inconclusive: 35.5 µM [inhibitor, single point]"
Cc1cc(C)cc(OCCSc2nc3ccc(NC(=O)c4ccc5c(c4)OCO5)cc3s2)c1,,"inconclusive: 89.1 µM [inhibitor, single point]"
C/C(=N\NC(=O)c1ccc(-c2ccccc2)cc1)C1C(=O)c2ccccc2C1=O,,"inconclusive: 31.6 µM [inhibitor, single point]"
CCOC(=O)c1c(NC(=O)c2cc(-c3ccccc3OC)on2)sc(C)c1C,inactive: 8.24%,
Nc1nnc(SCC(=O)Nc2sc3c(c2C(=O)c2ccccc2)CCCC3)s1,,"inconclusive: 28.2 µM [inhibitor, partial curve, poor fit]"

# Remaining list, next part

Compound,"activity, negative = inhibition",Potency
O=[N+]([O-])c1ccc2c(c1)Cc1cc(F)ccc1-2,inactive: -1.67%,
CCOC(=O)c1sc(-c2cccc(C(F)(F)F)c2)nc1O,,"inconclusive: 35.5 µM [inhibitor, partial curve, poor fit]"
CCc1ccc(S(=O)(=O)c2cn(CC(=O)Nc3ccc(F)c(Cl)c3)c3ccccc3c2=O)cc1,inactive: 28.1%,
COC(=O)c1cccc(N2C(=O)c3ccccc3S2(=O)=O)c1,,"inconclusive: 39.8 µM [inhibitor, single point]"
Cc1ccc2nc(CN3CCN(C(=O)Nc4ccc(F)cc4)CC3)oc2c1,inactive: 3.25%,
C=CCSC1=N/C(=C\c2ccc(C)o2)C(=O)S1,,"inconclusive: 8.91 µM [inhibitor, full curve, poor fit]"
CN1C[C@@H]2[C@@H]3C(=O)N(C)C(=O)[C@@H]3[C@](Cc3ccccc3)(C1=O)N2C(=O)c1ccc(F)cc1,,"inconclusive: 56.2 µM [inhibitor, single point]"
COc1ccc(C2C(=O)N(C3CCCCC3)CC(=O)N2CCc2ccc(C)cc2)cc1OC (configuration not stated),inactive: -7.98%,
O=C(NN1C(=O)c2ccc(-c3ccc4c(c3)C(=O)N(NC(=O)c3cccnc3)C4=O)cc2C1=O)c1cccnc1,,active: 50.1 µM
COC(=O)c1cc2oc(C)cc2n1Cc1ccccc1Cl,inactive: 16.6%,
CCn1c2ccccc2c2nnc(SCCN3CCOCC3)nc21,,"inconclusive: 39.8 µM [inhibitor, single point]"
CCOC(=O)Cn1c(=N)n(Cc2ccc(C(C)(C)C)cc2)c2ccccc21,inactive: 4.62%,
O=[N+]([O-])c1ccc(O)c(C2=NNC(c3ccccc3F)C2)c1 (configuration not stated),,"inconclusive: 25.1 µM [inhibitor, partial curve]"
COc1ccc(NC(=O)C2CCC(CNS(=O)(=O)c3cccc4nsnc34)CC2)cc1OC (configuration not stated),inactive: 25.8%,
O=C(COC(=O)C1=COCCO1)Nc1ncc(C(F)(F)F)cc1Cl,,"inconclusive: 35.5 µM [inhibitor, single point]"
Cc1ccc(CN2C(=O)C(O)(c3c(C)[nH]c4ccccc34)c3ccccc32)cc1 (configuration not stated),,"inconclusive: 56.2 µM [inhibitor, partial curve, poor fit]"
O=C(O)c1cc2c(s1)-c1ccccc1CC2,inactive: 4.33%,
O=c1nc2s/c(=C\c3ccco3)c(=O)n2nc1Cc1ccc(F)cc1,,active: 10 µM
O=C(C#Cc1ccccc1)c1cccc([N+](=O)[O-])c1,,"inconclusive: 22.4 µM [inhibitor, single point]"
COC1=C/C(=C/c2c(N)n3nc(CC(=O)N4CCOCC4)sc3nc2=O)C=CC1=O,,active: 22.4 µM
O=C(CC(NCc1ccccn1)C(=O)O)Nc1ccccc1Cl (configuration not stated),,"inconclusive: 6.31 µM [inhibitor, partial curve]"
CC(C(=O)N1c2ccccc2Sc2ccccc21)n1nnc(-c2cccs2)n1 (configuration not stated),,"inconclusive: 112 µM [inhibitor, single point]"
COCCn1c(N)c(C#N)c2nc3ccccc3nc21,,"inconclusive: 35.5 µM [inhibitor, single point]"

# Entries of single compounds, quoted from the list.
# COC(=O)c1cc2oc(C)cc2n1Cc1ccccc1Cl in the list: activity, negative = inhibition: inactive: 16.6%
# Cc1ccc(CN2C(=O)C(O)(c3c(C)[nH]c4ccccc34)c3ccccc32)cc1 (configuration not stated) in the list: Potency: inconclusive: 56.2 µM [inhibitor, partial curve, poor fit]

# Next records follow.

Compound,"activity, negative = inhibition",Potency
COC(=O)C1=C(C)N=C2SC(C)C(=O)N2C1c1cccs1 (configuration not stated),,"inconclusive: 39.8 µM [inhibitor, single point]"
O=C(O)c1c(-n2cccc2)sc2c1CCCC2,inactive: 94.6%,
CC12CCC(=O)N1C(C(=O)Nc1nc(-c3ccccc3)cs1)CS2 (configuration not stated),inactive: 24.8%,
COc1ccc(N=C2S/C(=C\c3ccc(Cl)c([N+](=O)[O-])c3)C(=O)N2CCN(C)C)cc1,,"inconclusive: 39.8 µM [inhibitor, single point]"
Cc1ccc(S(=O)(=O)c2nc(-c3ccc(F)cc3)oc2SCC(=O)NC2CCCCC2)cc1,inactive: 13.7%,
CCC(Cn1nnc2ccccc2c1=O)NC(=O)Nc1ccccc1OC (configuration not stated),,"inconclusive: 89.1 µM [inhibitor, single point]"
COc1ccc(S(N)(=O)=O)cc1C(=O)OCC(=O)Nc1ncc(Cl)c(C)c1Cl,,"inconclusive: 31.6 µM [inhibitor, single point]"
CC(C)c1ccc(S(=O)(=O)/N=C2\C=C(NS(=O)(=O)c3ccccc3)C(=O)c3ccccc32)cc1,,"inconclusive: 14.1 µM [inhibitor, partial curve, poor fit]"
CCn1c(COc2ccc3c(c2)OCO3)nnc1SCC(=O)c1ccc(Cl)cc1,,"inconclusive: 39.8 µM [inhibitor, single point]"
CCN(CC)C(=O)COC(=O)c1ccc(O)cc1,,"inconclusive: 39.8 µM [inhibitor, partial curve, poor fit]"
O=C1C=C(c2ccc(Cl)c(C(F)(F)F)c2)C[C@@H](c2ccc3c(c2)OCO3)C1,,"inconclusive: 12.6 µM [inhibitor, partial curve, poor fit]"
CCn1cc(CNC(=O)c2cc(-c3ccc(C)cc3)nc3ccc(Br)cc23)c(C)n1,,"inconclusive: 56.2 µM [inhibitor, partial curve, poor fit]"
COc1cccc(NC(=O)C2CCC(CNS(=O)(=O)c3ccc4c(c3)CCCC(=O)N4)CC2)c1 (configuration not stated),,"inconclusive: 89.1 µM [inhibitor, partial curve, poor fit]"
CC(=O)Oc1cc(C(=O)OCC(=O)N2CCc3ccccc3C2)cc(OC(C)=O)c1OC(C)=O,,"inconclusive: 7.08 µM [inhibitor, full curve, poor fit]"
Cc1ccc(C)c(NC(=O)Cn2cc(C(=O)C3CC3)c3ccccc32)c1,,"inconclusive: 56.2 µM [inhibitor, partial curve, poor fit]"
CC1(c2ccc(Cl)cc2)NC(=O)N(CC(=O)Nc2cccnc2Cl)C1=O (configuration not stated),,"inconclusive: 56.2 µM [inhibitor, partial curve, poor fit]"
CC(=O)c1ccc([C@H]2C[C@@]34CN(C(=O)OC(C)(C)C)S(=O)(=O)[C@H]3C[C@H]2O4)cc1,,"inconclusive: 39.8 µM [inhibitor, single point]"
O=c1cc(-c2ccccc2)nc(Sc2ccc([N+](=O)[O-])cc2[N+](=O)[O-])[nH]1,,"inconclusive: 25.1 µM [inhibitor, single point]"
CN1C(=S)N(c2ccccc2)C(=O)/C1=C/c1ccco1,inactive: 12.4%,
Cc1csc2nc(COC(=O)CNC(=O)c3ccc(Cl)cc3)cc(=O)n12,,"inconclusive: 39.8 µM [inhibitor, partial curve, poor fit]"
COc1cccc(NCc2nnc(SC(C(=O)N(C)C)c3ccccc3)n2C2CCCCC2)c1 (configuration not stated),inactive: 1.33%,
